The record followed here is PMC3390413.

Assay [1] concerns the target T1, FLAG-p115 (human) (UniProt O60763).
T1 sequence: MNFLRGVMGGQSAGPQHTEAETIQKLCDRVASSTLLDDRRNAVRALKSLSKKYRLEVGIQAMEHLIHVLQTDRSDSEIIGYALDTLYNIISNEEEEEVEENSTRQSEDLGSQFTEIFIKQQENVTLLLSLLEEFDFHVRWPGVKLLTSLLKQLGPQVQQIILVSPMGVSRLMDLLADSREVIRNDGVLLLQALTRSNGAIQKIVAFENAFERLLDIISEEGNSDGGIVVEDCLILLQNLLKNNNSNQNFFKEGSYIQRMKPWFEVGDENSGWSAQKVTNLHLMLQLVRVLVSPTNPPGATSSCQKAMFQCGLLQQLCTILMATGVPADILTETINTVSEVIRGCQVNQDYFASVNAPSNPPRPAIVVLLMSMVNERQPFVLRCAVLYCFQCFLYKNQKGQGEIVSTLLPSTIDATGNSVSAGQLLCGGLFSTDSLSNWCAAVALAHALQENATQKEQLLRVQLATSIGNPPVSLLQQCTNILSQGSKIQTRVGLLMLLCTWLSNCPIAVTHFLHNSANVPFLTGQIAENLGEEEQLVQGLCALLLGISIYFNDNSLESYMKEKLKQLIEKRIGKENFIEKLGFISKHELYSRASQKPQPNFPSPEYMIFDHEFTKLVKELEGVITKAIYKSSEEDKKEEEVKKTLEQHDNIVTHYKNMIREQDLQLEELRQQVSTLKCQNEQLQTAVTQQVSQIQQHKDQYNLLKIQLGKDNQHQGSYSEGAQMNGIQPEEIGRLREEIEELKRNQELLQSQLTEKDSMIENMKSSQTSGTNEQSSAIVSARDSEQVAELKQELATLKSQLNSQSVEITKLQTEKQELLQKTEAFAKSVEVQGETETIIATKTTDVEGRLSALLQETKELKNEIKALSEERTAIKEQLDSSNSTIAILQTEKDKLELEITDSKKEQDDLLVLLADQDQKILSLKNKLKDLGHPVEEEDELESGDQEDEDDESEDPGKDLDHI
Nature of the assay: affinity purification with mass spectrometry; HEK293 cells stably expressing the FLAG-tagged bait; lysis in 0.5% NP-40; FLAG M2 beads, 2 h; LC-MS/MS; SAINT scoring against cells expressing FLAG alone; two biological replicates.

Assay [2] addresses FLAG-TRAF3 (human). Described as above.

No constants are given. Whether binding was seen depends on the method and setting. In cells and extracts the contact can be indirect. These calls come from enrichment with a bait or labelling near it, and not all partners need be listed. For some assays here: Tags and fused reporters may be left off the sequences shown.

B1: GM130 (protein, UniProt Q08379 1-1002)
chain: MWPQPRLPPRPAMSEETRQSKLAAAKKKLREYQQRNSPGVPTGAKKKKKIKNGSNPETTTSGGCHSPEDTPKDNAATLQPSDDTVLPGGVPSPGASLTSMAASQNHDADNVPNLMDETKTFSSTESLRQLSQQLNGLVCESATCVNGEGPASSANLKDLESRYQQLAVALDSSYVTNKQLNITIEKLKQQNQEITDQLEEEKKECHQKQGALREQLQVHIQTIGILVSEKAELQTALAHTQHAARQKEGESEDLASRLQYSRRRVGELERALSAVSTQQKKADRYNKELTKERDALRLELYKNTQSNEDLKQEKSELEEKLRVLVTEKAGMQLNLEELQKKLEMTELLLQQFSSRCEAPDANQQLQQAMEERAQLEAHLGQVMESVRQLQMERDKYAENLKGESAMWRQRMQQMSEQVHTLREEKECSMSRVQELETSLAELRNQMAEPPPPEPPAGPSEVEQQLQAEAEHLRKELEGLAGQLQAQVQDNEGLSRLNREQEERLLELERAAELWGEQAEARRQILETMQNDRTTISRALSQNRELKEQLAELQSGFVKLTNENMEITSALQSEQHVKRELGKKLGELQEKLSELKETVELKSQEAQSLQQQRDQYLGHLQQYVAAYQQLTSEKEVLHNQLLLQTQLVDQLQQQEAQGKAVAEMARQELQETQERLEAATQQNQQLRAQLSLMAHPGEGDGLDREEEEDEEEEEEEAVAVPQPMPSIPEDLESREAMVAFFNSAVASAEEEQARLRGQLKEQRVRCRRLAHLLASAQKEPEAAAPAPGTGGDSVCGETHRALQGAMEKLQSRFMELMQEKADLKERVEELEHRCIQLSGETDTIGEYIALYQSQRAVLKERHREKEEYISRLAQDKEEMKVKLLELQELVLRLVGDRNEWHGRFLAAAQNPADEPTSGAPAPQELGAANQQGDLCEVSLAGSVEPAQGEAREGSPRDNPTAQQIMQLLREMQNPRERPGLGSNPCIPFFYRADENDEVKITVI
On to B1, for which the binding entry in assay [1] is reported as “binds”.

B2: endogenous p115 (protein, UniProt O60763 1-962)
chain: MNFLRGVMGGQSAGPQHTEAETIQKLCDRVASSTLLDDRRNAVRALKSLSKKYRLEVGIQAMEHLIHVLQTDRSDSEIIGYALDTLYNIISNEEEEEVEENSTRQSEDLGSQFTEIFIKQQENVTLLLSLLEEFDFHVRWPGVKLLTSLLKQLGPQVQQIILVSPMGVSRLMDLLADSREVIRNDGVLLLQALTRSNGAIQKIVAFENAFERLLDIISEEGNSDGGIVVEDCLILLQNLLKNNNSNQNFFKEGSYIQRMKPWFEVGDENSGWSAQKVTNLHLMLQLVRVLVSPTNPPGATSSCQKAMFQCGLLQQLCTILMATGVPADILTETINTVSEVIRGCQVNQDYFASVNAPSNPPRPAIVVLLMSMVNERQPFVLRCAVLYCFQCFLYKNQKGQGEIVSTLLPSTIDATGNSVSAGQLLCGGLFSTDSLSNWCAAVALAHALQENATQKEQLLRVQLATSIGNPPVSLLQQCTNILSQGSKIQTRVGLLMLLCTWLSNCPIAVTHFLHNSANVPFLTGQIAENLGEEEQLVQGLCALLLGISIYFNDNSLESYMKEKLKQLIEKRIGKENFIEKLGFISKHELYSRASQKPQPNFPSPEYMIFDHEFTKLVKELEGVITKAIYKSSEEDKKEEEVKKTLEQHDNIVTHYKNMIREQDLQLEELRQQVSTLKCQNEQLQTAVTQQVSQIQQHKDQYNLLKIQLGKDNQHQGSYSEGAQMNGIQPEEIGRLREEIEELKRNQELLQSQLTEKDSMIENMKSSQTSGTNEQSSAIVSARDSEQVAELKQELATLKSQLNSQSVEITKLQTEKQELLQKTEAFAKSVEVQGETETIIATKTTDVEGRLSALLQETKELKNEIKALSEERTAIKEQLDSSNSTIAILQTEKDKLELEITDSKKEQDDLLVLLADQDQKILSLKNKLKDLGHPVEEEDELESGDQEDEDDESEDPGKDLDHI
For the molecule B2, in assay [2], the binding entry was “binds”.
